Experimental data as given in patent US20240369511A1, “INTEGRATED ELECTROCHEMICAL APTASENSORS FOR MEASURING CELL DEATH AND CYTOKINE ACTIVITY FROM INTACT TISSUE SAMPLES” (University of Washington, priority 2023, published 2024).
The exact form of at least one protein or probe is not confirmed. A weaker result is weaker than the reference pair of the same experiment.

Tested on: Fibroblast growth factor (FGF) (Homo sapiens)
Assay: binding assay
Settings: 5' ThioMC6-D (disulfide C6 thiol, attached to gold electrode); 3' amino modifier conjugated to methylene blue; 100 ng/mL, growth medium, SWV 50 Hz; signal gain lower than CytC; purified recombinant protein; label: 3' methylene blue; single-stranded DNA

## CCGTGTCTGGGGCCGACCGGCGCATTGGGTACGTTGTTGC [CytC aptamer (SEQ ID NO:1)]
  binding result: binds more weakly
